Entries after “also recorded” stand apart in the source; their conditions may differ. At least one compound was matched to its structure with a doubt left.
Tests used:
caspase 3 = test: Luminescent caspase 3 activity assay in 661W cells; assay type: cell-based; conditions: 24 hours of Fas-AAb treatment
Method: (§1) The 661W cell line was maintained in Dulbecco's modified Eagle's medium containing 10% fetal bovine serum, 300 mg/L glutamine, 32 mg/L putrescine, 40 μL/L of β-mercaptoethanol, and 40 μg/L of both hydrocortisone 21-hemisuccinate and progesterone. The media also contained penicillin (90 units/mL) and streptomycin (0.09 mg/mL). Cells were grown at 37° C. in a humidified atmosphere of 5% CO2 and 95% air.
(§2) Caspase 8 and Caspase 3 activity were measured by a commercially available luminescent tetrapeptide cleavage assay kits (Promega, Madison, Wis.). The 661W cells were seeded in 96-well plates (Nunc, Rochester, N.Y.) at 1000-1500 cells/well for 24 hours prior to treatment or siRNA transfection. Cells were treated with 500 ng/mL of Fas-agonistic Jo2 monoclonal antibody (BD Biosciences, Franklin Lakes, N.J.). In some experiments, cells were pretreated with MEK inhibitor U0126, JNK inhibitor SP600125, or DMSO. Caspase activity was measured at various time points by incubating the cells with the pro-luminescent substrate in 96-well plates following manufacturer's instructions. Controls included untreated cells and wells with no cells. Luminescence was measured in a plate reader luminometer (Turner Biosystems, Sunnyvale, Calif.).

caspase 8 = test: Luminescent caspase 8 activity assay in 661W cells; assay type: cell-based; conditions: 24 hours of Fas-AAb treatment
Method: as §1
as §2, with “Calif.). […]” for “Calif.).”

Faim2 = test: Immunoblot of Faim2 protein levels in 661W cells; assay type: cell-based, mouse; conditions: 661W cells treated with Fas-AAb
Method: as §1
(§3) Retinas from experimental eyes with detachments and control eyes without detachments were dissected from the RPE-choroid, homogenized, and lysed in buffer containing 10 mM HEPES (pH 7.6), 0.5% IgEPal, 42 mM KCl, 1 mM phenylmethylsulfonyl fluoride (PMSF), 1 mM EDTA, 1 mM EGTA, 1 mM dithiothreitol (DTT), and 5 mM MgCl2 and 1 tablet of protease inhibitors per 10 mL buffer (Complete Mini; Roche Diagnostics GmbH, Madison, Wis.). 661W cells were lysed and homogenized in lysis buffer (as above). The homogenates were incubated on ice and centrifuged at 22,000 g at 4° C. for 60 minutes. The protein concentration of the supernatant was then determined (DC Protein Assay kit; Bio-Rad Laboratories, Hercules, Calif.). The protein samples were separated on SDS-polyacrylamide gels (Tris-HCl Ready Gels; Bio-Rad Laboratories, Hercules, Calif.). […] Protein bands were visualized with Ponceau S staining, and the lanes were assessed for equal loading by densitometry of entire lanes. […]

c-Jun = test: Immunoblot of phosphorylation of JNK-target c-Jun (P-c-Jun) in Fas-AAb treated 661W cells; assay type: cell-based; conditions: inhibitor pretreatment 1 hour before Fas-AAb, protein isolated 4 hours later
Method: as §1, §3

661W cells = test: Luminescent cell viability assay, Fas-mediated cell death of 661W cells; assay type: cell-based; conditions: 661W cells treated with Fas-AAb
Method: as §1
as §2, with “Cell viability was” for “Caspase 8 and Caspase 3 activity were”, “luminescent” for “luminescent tetrapeptide cleavage”, “kit” for “kits”, “treatment.” for “treatment or siRNA transfection.”, “Cell viability” for “Caspase activity”, “Sunnyvale” for “Sunnyvale,”

**Q.** For `Oc1c2ccccc2c2c3c(cccc13)N=N2` [SP600125], which “Caspase 3 activity in presence of inhibitor” value (caspase 3) is on record?
**A.** increased

**Q.** And the “Caspase 8 activity in presence of inhibitor” value (caspase 8)?
**A.** increased

**Q.** What about the “Faim2 levels in Fas-AAb treated cells in presence of MAPK inhibitor” value (Faim2) of the same compound?
**A.** did not affect; also recorded: did not have any effect; also recorded: did not show any effect

**Q.** And the “Effect on Fas-AAb-dependent phosphorylation of JNK-target c-Jun” value (c-Jun)?
**A.** blocked

**Q.** What about the “Fas-AAb-mediated cell death in presence of inhibitor” value (661W cells) of the same compound?
**A.** increased caspase activation and cell death; also recorded: more sensitive to Fas-mediated cell death
